# Measurements as given in US10398725B2, “Ophthalmic compositions and methods of use” (Veloce BioPharma, LLC, priority 2015, dated 2019).
# For at least one compound, name, drawing or mass did not settle the structure.
# System: rosacea blepharoconjunctivitis
# Test: Example 3B: person with rosacea blepharoconjunctivitis
# Assay type: in vivo, human
# Conditions: before the PVP-I/DMSO gel
# Excerpt: B. Rosacea Blepahritis; Treated with 1% PVP-I in 44% USP Grade DMSO with 4% Hydroxyethylcellulose in Water
# A person with a past ocular history of glaucoma and pseudophakia presented with long standing ocular dryness, grittiness, periocular erythema and eyelid crusting. On facial inspection, nasal and facial telangiectasia with flushing were evident. Their topical medical regimen included Latanoprost 1 drop QHS OU, Brimonidine 1 drop BID OU, and Dorzolamide/Timolol 1 drop BID OU. The patient endorsed utilization of a variety of medicines and treatments to abate this condition, however, they were of little benefit. Failed therapies included topical steroids, antibiotics including azithromycin, combination medicines, and cyclosporine. Oral medicines including doxycycline and DHA/ALA/EPA were also ineffective.
# Further towards the posterior tarsal area, dilated, engorged telangiectatic vessels were present. […] A diagnosis of rosacea blepharoconjunctivitis was made.
# The patient was given a topical gel of 1% PVP-I in a dimethylsulfoxide (DMSO) vehicle that was prepared from a licensed compounding pharmacy. The treatment was administered twice daily and delivered by rubbing the gel onto the lash line and eyelid. […] Most prominently, much of the conjunctivitis, anterior lid erythema and thickening had reversed. […]
compound,measurement,value
C[C@H]1c2cccc(O)c2C(=O)C2=C(O)[C@]3(O)C(=O)C(C(N)=O)=C(O)[C@@H](N(C)C)[C@@H]3[C@@H](O)[C@@H]21 [doxycycline],outcome of earlier therapies (patient history),ineffective
